PubChem BioAssay AID720505 | Drosophila RNAi Screening Center – 2013
The deposit covers about 20,000 reagents; below is an unselected part of those with a known target gene and a result. Of all reagents, about 2,100 (10%) are marked active. 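Raw plate signals without normalisation; calls rest on control-based scores that were not deposited; replicate 2 separates called from uncalled poorly.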 A plus sign joins genes that one reagent is predicted to hit. Not given: the amount of reagent, the time to read-out.

Aim: 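Knock-downs that reduce calcium influx once internal stores are emptied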 (primary screen)
Cell system: Drosophila S2R+ cells
Knock-down reagent: long dsRNA against Drosophila genes
Conditions: thapsigargin (2 µM) in calcium-free buffer to empty internal stores, then 2 mM calcium added back
Measured: 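Stores emptied by 2 µM thapsigargin without calcium, then 2 mM calcium re-added; fluo-4 fluorescence followed by FLIPR in 384-well plates, per-well averaged endpoint, raw; two screen passes, some wells retested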
Reading the numbers: calcium signal and retest calcium signal: higher = more calcium entry after store depletion
Hit rule: 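About 1500 genes called as lowering calcium entry, by varying amounts, judged against per-plate control wells with STIM1 as positive and Rho1 as negative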
Calls: active = called as lowering calcium entry; inactive = not called

The opening 8 entries as a preview:
gene	amplicon	calcium signal, replicate 1	calcium signal, replicate 2	retest calcium signal, replicate 1	retest calcium signal, replicate 2	activity call
CG4294	DRSC04460	107	110			inactive
CG42749	DRSC18091	62.6	300			active
CG42749	DRSC18092	294	94.8			inactive
Rab3GAP1	DRSC00291	152	177			inactive
Rab3GAP1	DRSC00703	191	176			inactive
emb	DRSC03528	96.4	173			inactive
pzg	DRSC11848	66.3	102			active
chp	DRSC16925	88.5	96.8			inactive

Results, from the first entry:
gene	amplicon	calcium signal, replicate 1	calcium signal, replicate 2	retest calcium signal, replicate 1	retest calcium signal, replicate 2	activity call
CG4294	DRSC04460	107	110			inactive
CG42749	DRSC18091	62.6	300			active
CG42749	DRSC18092	294	94.8			inactive
Rab3GAP1	DRSC00291	152	177			inactive
Rab3GAP1	DRSC00703	191	176			inactive
emb	DRSC03528	96.4	173			inactive
pzg	DRSC11848	66.3	102			active
chp	DRSC16925	88.5	96.8			inactive
ClpX	DRSC15592	134	212			inactive
CG13311	DRSC09982	98.2	69.1			inactive
CG13171	DRSC06299	107	152			inactive
CG17260	DRSC00497	88.1	217			inactive
CG30432	DRSC04833	104	125			inactive
CG8032	DRSC16365	132	178			inactive
CG10979	DRSC12153	128	191			inactive
Awh	DRSC08140	75.1	75.2			inactive
GstE9	DRSC06679	192	175			inactive
CG18273	DRSC18150	65.2	105			active
CG18273	DRSC18505	93	147	64.5	75.3	inactive
SA1	DRSC03424	79.5	136			inactive
ZAP3	DRSC17852	130	120			inactive
ZAP3	DRSC17853	68.8	75.5			active
ZAP3	DRSC18249	118	94.2			inactive
CG13587	DRSC04223	148	180			inactive
CG33695 + cana	DRSC01163	159	77.1			inactive
CG33695 + cana	DRSC03503	191	179			inactive
CanB2	DRSC07355	144	143			inactive
Zip42C.2	DRSC05004	129	174			inactive
CG6763	DRSC16110	193	98			inactive
CG9747	DRSC16554	86.2	126	8135	191	inactive
CenB1A	DRSC16923	208	165	112	91.7	inactive
CG7328	DRSC10812	107	99.3			inactive
CG15160	DRSC02461	120	102			inactive
CG13689	DRSC00358	89.6	114			inactive
CG13096	DRSC02198	188	123			inactive
RhoGAPp190	DRSC20097	87	75.9			inactive
RhoGAPp190	DRSC20099	147	128			inactive
CG14787	DRSC18606	109	105			inactive
CG5033	DRSC07410	155	132			inactive
Ance-2	DRSC02539	63.3	112			active
Sp212	DRSC22930	148	193			inactive
nxf2	DRSC10403	65.3	105			active
Or94b	DRSC16773	166	162			inactive
CG12912	DRSC06227	59	90.6			active
CG9570	DRSC20687	71.1	134			active
CG43072	DRSC11688	79.7	111			inactive
narya	DRSC19439	206	149			inactive
CG33792	DRSC05355	119	125			inactive
CG9822	DRSC04568	147	144			inactive
Vps26	DRSC18555	75.9	97.9			active
Gr98c	DRSC22212	123	252			inactive
CG5386	DRSC15788	188	160			inactive
cindr	DRSC14126	117	172			inactive
cindr	DRSC14298	179	158			inactive
CG4714	DRSC06883	128	113			inactive
CG32668	DRSC18879					inactive
CG34423 + Mthfs	DRSC04088	63.8	140			active
CG7483	DRSC16249	45	68.8			active
CG7483	DRSC22432	131	179			inactive
Acf	DRSC14101	80.8	99			inactive
Efhc1.1	DRSC20135	133	125			inactive
CG17994	DRSC04877	147	164			inactive
ens	DRSC08454	66.4	112			active
APC7	DRSC17937	99.6	98.8			inactive
CG10486	DRSC09735	77	77.1			inactive
CG3330	DRSC15477	113	123			inactive
CG7309	DRSC03045	86.8	131			inactive
m-cup	DRSC14430	134	148			inactive
Vps24	DRSC12332	124	101	112	131	inactive
Cyp12e1	DRSC16622	160	111			inactive
CG12126	DRSC06103	145	193			inactive
Syx13	DRSC09836	92.3	113			inactive
Polr3H	DRSC10817	101	88.8			inactive
CG32111 (retired record)	DRSC09203					active
CG4269	DRSC04457	121	78.2			active
Dpck	DRSC12575	116	165			inactive
CG33552	DRSC01551	74.6	154			inactive
Taf13	DRSC02106	141	115			inactive
pwn	DRSC06035	123	138	112	108	inactive
Spx	DRSC18720	57.1	145			active
CR30374	DRSC05080	123	138			inactive
CG33093	DRSC15775	113	150			inactive
CG12010	DRSC08218	65.8	123			inactive
